Experimental data: PubChem BioAssay AID504774 (Drosophila RNAi Screening Center, 2011)
In all, the deposit lists about 23,000 reagents; shown is a random part of those that have a named target and a result. 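Values are quantile-normalised luminescence on an arbitrary scale; higher means more cells surviving MMS.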 The numbers tell different reagents against one gene apart. A plus sign joins genes that one reagent is predicted to hit. Further read-outs or replicates are left out here. Reagent sequences are not shown.

Purpose: 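Fly genes whose loss alters survival after alkylation damage to DNA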 (primary screen)
System: Drosophila Kc167 cells
Knock-down reagent: long dsRNA against Drosophila genes, about 0.25 µg dsRNA per well
Duration: about 6 days: 3 days knock-down, then 3 days with or without MMS
Treatment: methyl methanesulphonate 0.004% (w/v) for 3 days after knock-down
Measured: 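ATP-dependent luminescence as a measure of live cells in MMS-exposed wells, quantile normalised within each plate, with replicate values also given as a mean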
Reading the numbers: mean viability with MMS and viability with MMS: higher = more surviving cells after MMS

gene knocked down | dsRNA no. | mean viability with MMS | viability with MMS, replicate 1
CG42241 (retired record) (GeneID 7354372) | 1 | 3.64e6 | 4.34e6
Patronin (GeneID 36978) | 1 | 3.59e6 | 4.11e6
Patronin (GeneID 36978) | 2 | 3.46e6 | 3.92e6
Patronin (GeneID 36978) | 3 | 3.50e6 | 3.98e6
CG7218 (GeneID 42165) | 1 | 3.48e6 | 3.95e6
CG12744 (GeneID 36024) | 1 | 3.74e6 | 4.24e6
CG42502 + CG10570 | 1 | 3.63e6 | 4.17e6
tld (GeneID 42945) | 1 | 3.42e6 | 3.81e6
CG1835 (GeneID 33057) | 1 | 3.53e6 | 4.05e6
Gld (GeneID 40875) | 1 | 3.53e6 | 4.01e6
kek1 (GeneID 34688) | 1 | 3.59e6 | 3.95e6
Trx2 (GeneID 34281) | 1 | 3.45e6 | 3.76e6
mRpS21 (GeneID 318249) | 1 | 3.74e6 | 4.17e6
mRpS21 (GeneID 318249) | 2 | 3.69e6 | 4.24e6
Gyc89Db (GeneID 42002) | 1 | 3.70e6 | 4.17e6
Achl (GeneID 36605) | 1 | 3.56e6 | 4.02e6
CG10657 (GeneID 39423) | 1 | 3.55e6 | 3.99e6
CG17931 + CG42446 | 1 | 3.52e6 | 3.87e6
temp (GeneID 31212) | 1 | 3.63e6 | 4.21e6
Mal-B1 (GeneID 34597) | 1 | 3.44e6 | 3.78e6
CG6805 (GeneID 36911) | 1 | 3.48e6 | 3.94e6
nero (GeneID 43740) | 1 | 3.41e6 | 3.91e6
CG11842 (GeneID 43431) | 1 | 3.48e6 | 3.93e6
CG15071 (GeneID 37153) | 1 | 3.53e6 | 4.04e6
TTLL1B (GeneID 326203) | 1 | 3.64e6 | 4.12e6
vanin-like (GeneID 31551) | 1 | 3.51e6 | 4.01e6
TwdlK (GeneID 43205) | 1 | 3.32e6 | 3.71e6
Skp2 + CG1103 | 1 | 3.56e6 | 3.99e6
Skp2 + CG1103 | 2 | 3.42e6 | 3.94e6

4 of these entries, reformatted:
{"gene knocked down":"Patronin (GeneID 36978)","dsRNA no.":1,"mean viability with MMS":3.59e6,"viability with MMS, replicate 1":4.11e6}
{"gene knocked down":"Patronin (GeneID 36978)","dsRNA no.":2,"mean viability with MMS":3.46e6,"viability with MMS, replicate 1":3.92e6}
{"gene knocked down":"Patronin (GeneID 36978)","dsRNA no.":3,"mean viability with MMS":3.50e6,"viability with MMS, replicate 1":3.98e6}
{"gene knocked down":"CG7218 (GeneID 42165)","dsRNA no.":1,"mean viability with MMS":3.48e6,"viability with MMS, replicate 1":3.95e6}
